± gives the standard deviation. Only a part is listed here, and it is no random draw. Many of these values have a large error.
test system: EfPiwi piRISC loaded with piRNA #1 (26 nt); assay: pre-steady-state target cleavage rate (min^-1); guide: piRNA #1 5'p-UGAGGUAGUAGGUUGUAUAGUAUCCA; MIWI and MILI are mouse PIWI proteins and EfPiwi is from a freshwater sponge; tags in brackets are library labels; higher = faster piRNA-guided slicing of the target; settings: auxiliary factor: 500 nM Ephydatia muelleri Gtsf1
How it was run: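 Cleave-'n-Seq reactions paired 0.1 nM transcribed, DNA-blocked target RNA library with 1 nM active affinity-purified piRISC holding one synthetic guide, plus or minus 500 nM GTSF1 partner protein, in HEPES–potassium acetate buffer at 33 °C for 0–8 or 0–960 min. After sequencing of uncleaved targets and normalisation to depth and weakly complementary targets, the pre-steady-state cleavage rate was taken from a burst-and-steady-state fit. Three trials were pooled, and k3 was capped at 0.0001 min^-1.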

Row | Sequence | pre-steady-state target cleavage rate
1 | GGAGACCUUACUAUACAACCUACUAACUCA | 0.00261 ± 0.0027
2 | GGAGACCAUACUAUAGAACGUACUACCUCA | 0.00175 ± 0.0035
3 | GGAGAGGAUACUAUACAAGGAACUACCUCA | 0.00121 ± 0.0054
4 | GGAGACCUAUCUAUACAACGUACUACCACA | 0.00343 ± 0.0031
5 | GGAGACCUUAGUAUACAACCUAGUACCUCA | 0.00169 ± 0.0027
6 | GGAGACCUAUGAUAUGUUCCUACUCCCUCA | < 0.0001
7 | GGAGACCUAUCUAUACAACCUAUUACCUCA | 0.00466 ± 0.0039
8 | GGAGUGGAUACUAUAGAACCAACUACCUCA | 0.00159 ± 0.0019
9 | GGAGACCUAUGAUAUGUUGCUACACCUCA | 0.000331 ± 0.005
10 | GGAGACCUUACUAUACAACGUACAACCUCA | 0.00369 ± 0.0054
11 | GGAGACGUUACUAUACAAGCUACUACCUCA | 0.00435 ± 0.002
12 | GGAGAGGUUACUAUACAACCUACUUCCUCA | 0.0033 ± 0.002
13 | GGAGUGGAUACUAUACAACCUACUACCUUA | 0.276 ± 0.095
14 | GGAGUGGUUACUAUACAAGCUACUACCUCA | 0.00582 ± 0.0018
15 | GGAGACGAUACUAUAGAACCUACUACCUCA | 0.00433 ± 0.0017
16 | GGAGACCAUACUAAACAACGUACUACCUCA | 0.00133 ± 0.005
17 | GGAGACCUAUGAUAUCAACACUACUACCUCA | 0.00106 ± 0.0073
18 | GGAGACCUAUGAUAUCAUACCUACUACCUCA | 0.000373 ± 0.012
19 | GGAGACCUAACAUUACAACCUACUACCUCA | 0.00377 ± 0.0039
20 | GGAGACCUAACUAUACAACCUACUACCUUCA | 0.0285 ± 0.011
21 | GGAGACCAUACUAUAGAUCCUACUACCUCA | 0.00287 ± 0.0038
22 | GGAGACGAUACUUAUACAACCUACUACCUCA | 0.0473 ± 0.017
23 | GGAGUGGAUACUAUACAAGCUACUAGCUCA | 0.00331 ± 0.0021
24 | GGAGACCUAUGUAUACAUCCUACUACCUCA | 0.00183 ± 0.0039

Shown field by field: entries from further up
GGAGACCUAUCUAUACAACGUACUACCACA
  pre-steady-state target cleavage rate: 0.00343 ± 0.0031
GGAGACCUUAGUAUACAACCUAGUACCUCA
  pre-steady-state target cleavage rate: 0.00169 ± 0.0027
